# In patent US4406883A, “Controlled release suppositories consisting essentially of a linear polymer particularly, polyvinyl pyrrolidones” (Merrell Dow Pharmaceuticals Inc., priority 1981, dated 1983):
# The name of at least one read-out is uncertain.
# Conditions: male beagle
substance,measurement,value
[^14 C]-lignocaine hydrochloride,"cumulative % total administered dose, through evacuated suppository",76.27%
